The values that follow come from PMC9402713, “Structural analysis of Red1 as a conserved scaffold of the RNA-targeting MTREC/PAXT complex” (Nature Communications, 2022).

No constants are given. Whether binding was seen depends on the method and setting. For some assays here: Binding calls can cover weak binding; strength is not graded here. For some assays here: In cells and extracts the contact can be indirect. For some assays here: Where a sequence is shown, tags or fusion partners need not be part of it.

For test [1], the target named is T1, Strep-Ars2 107-527 (S. pombe, UniProt O94326 107-527).
T1 construct: vector pETM41; source: E. coli BL21Star (DE3), purified (Ni^2+ chelating Sepharose); not shown: Strep-tag, C-terminal, kept
T1 sequence (looked up): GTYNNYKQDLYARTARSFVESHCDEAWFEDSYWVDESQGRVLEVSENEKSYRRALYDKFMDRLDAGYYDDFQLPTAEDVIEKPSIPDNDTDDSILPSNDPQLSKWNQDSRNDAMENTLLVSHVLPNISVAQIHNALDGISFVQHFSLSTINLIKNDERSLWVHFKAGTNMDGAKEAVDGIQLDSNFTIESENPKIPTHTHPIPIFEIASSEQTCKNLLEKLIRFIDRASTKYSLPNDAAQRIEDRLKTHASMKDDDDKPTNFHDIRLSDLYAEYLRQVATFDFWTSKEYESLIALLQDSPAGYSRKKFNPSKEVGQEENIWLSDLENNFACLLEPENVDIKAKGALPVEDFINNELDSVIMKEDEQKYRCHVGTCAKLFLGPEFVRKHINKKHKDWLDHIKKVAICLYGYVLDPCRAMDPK
Put plainly: pull-down; Strep-tag pull-down: Ni-purified Strep-Ars2 107-527 held on Strep-Tactin XT, Ni-purified His-MBP-Red1 added; 20 mM Tris pH 8, 100 mM NaCl; eluted with 50 mM D-biotin; both purified.

Test [2] addresses T2, Red1-TAP (S. pombe) (UniProt Q9UTR8).
T2 sequence: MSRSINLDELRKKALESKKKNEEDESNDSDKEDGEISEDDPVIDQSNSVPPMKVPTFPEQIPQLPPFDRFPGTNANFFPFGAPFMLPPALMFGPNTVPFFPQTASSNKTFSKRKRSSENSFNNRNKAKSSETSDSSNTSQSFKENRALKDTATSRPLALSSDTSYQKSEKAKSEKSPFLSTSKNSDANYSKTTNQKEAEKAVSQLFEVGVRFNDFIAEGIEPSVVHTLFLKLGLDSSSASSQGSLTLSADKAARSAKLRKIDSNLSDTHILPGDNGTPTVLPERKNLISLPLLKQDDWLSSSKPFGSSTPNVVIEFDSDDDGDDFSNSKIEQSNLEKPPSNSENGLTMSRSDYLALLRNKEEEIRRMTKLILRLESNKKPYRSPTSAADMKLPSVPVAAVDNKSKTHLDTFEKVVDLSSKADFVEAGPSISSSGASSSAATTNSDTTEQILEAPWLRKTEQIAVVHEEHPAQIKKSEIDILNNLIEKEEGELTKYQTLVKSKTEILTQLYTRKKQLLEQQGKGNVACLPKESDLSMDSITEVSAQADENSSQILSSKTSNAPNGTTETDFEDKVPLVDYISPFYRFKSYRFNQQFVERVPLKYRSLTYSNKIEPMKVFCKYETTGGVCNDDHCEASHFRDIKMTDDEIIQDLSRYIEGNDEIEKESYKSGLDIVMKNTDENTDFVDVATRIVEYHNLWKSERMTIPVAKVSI
Put plainly: co-IP; soluble extracts of S. pombe grown in minimal medium; Red1-TAP held on IgG Sepharose, 2 h at 4 °C, 150 mM NaCl, 0.2% NP-40; western blot. On the technique in general: In western blotting, separated proteins are transferred to a membrane and probed.

Test [3] has as its target Strep-Iss10 1-45 (S. pombe). Put plainly: pull-down; Strep-tag pull-down: His-MBP-Red1 and Strep-Iss10 co-expressed in E. coli, supernatant loaded on Strep-Tactin XT; 20 mM Tris pH 8, 100 mM NaCl, 5 mM β-mercaptoethanol; eluted with 50 mM D-biotin.
The target of test [4] is Strep-Iss10 1-45 (S. pombe). Briefly: NMR structure; solution structure of the co-purified 13C,15N-labelled Red1 192-236 / Iss10 1-45 heterodimer, 298 K; both purified.
Test [5] deals with Ars2 68-183,206-531 (S. pombe). Put plainly: crystal structure; dimeric Ars2 68-183,206-531 at 8 mg/ml with a three-fold molar excess of Red1 20-40 peptide; hanging drop, 5 °C; 2.8 Å; both purified.
The target of test [6] is Iss10-GFP (S. pombe). Briefly: co-IP; reciprocal: S. pombe extracts treated with TEV protease to remove the protein A part of the TAP tag, Iss10-GFP held on GFP-Trap magnetic beads; western blot.

In the case of “His-MBP-Red1 20-40 mutated at Asp33 (from UniProt Q9UTR8) (domain or fragment)”, in test [1], the binding entry was “no binding”.
Turning to “His-MBP-Red1 20-40 mutated at Ile36 (from UniProt Q9UTR8) (domain or fragment)”, the binding entry in test [1] is on record as “no binding”.
As for Iss10-GFP (S. pombe), the binding result in test [2] is on record as “binds”.
Regarding “His-MBP-Red1 20-40 mutated at Glu35 (from UniProt Q9UTR8) (domain or fragment)”, the binding entry in test [1] was “no binding”.
With TTNQKEAEKAVSQLFEVGVRFNDFIAEGIEPSVVHTLFLKLGLDS (domain or fragment, UniProt Q9UTR8 192-236) [His-MBP-Red1 192-236], the binding result in test [3] is “binds”.
Regarding TTNQKEAEKAVSQLFEVGVRFNDFIAEGIEPSVVHTLFLKLGLDS (domain or fragment, UniProt Q9UTR8 192-236) [Red1 192-236, His-MBP tag cleaved], the binding result in test [4] is reported as “binds”.

B1: Red1 peptide 20-40 (peptide)
peptide: KNEEDESNDSDKEDGEISEDD
notes: Red1, S. pombe, residues 20-40 with the EDGEI motif; also called Red1^20–40 peptide; Red1 N-terminal peptide; source: synthetic peptide (PSL GMBH)
With B1, the binding result in test [5] was “binds”.

B2: Red1-TAP (protein, UniProt Q9UTR8 1-712)
chain: MSRSINLDELRKKALESKKKNEEDESNDSDKEDGEISEDDPVIDQSNSVPPMKVPTFPEQIPQLPPFDRFPGTNANFFPFGAPFMLPPALMFGPNTVPFFPQTASSNKTFSKRKRSSENSFNNRNKAKSSETSDSSNTSQSFKENRALKDTATSRPLALSSDTSYQKSEKAKSEKSPFLSTSKNSDANYSKTTNQKEAEKAVSQLFEVGVRFNDFIAEGIEPSVVHTLFLKLGLDSSSASSQGSLTLSADKAARSAKLRKIDSNLSDTHILPGDNGTPTVLPERKNLISLPLLKQDDWLSSSKPFGSSTPNVVIEFDSDDDGDDFSNSKIEQSNLEKPPSNSENGLTMSRSDYLALLRNKEEEIRRMTKLILRLESNKKPYRSPTSAADMKLPSVPVAAVDNKSKTHLDTFEKVVDLSSKADFVEAGPSISSSGASSSAATTNSDTTEQILEAPWLRKTEQIAVVHEEHPAQIKKSEIDILNNLIEKEEGELTKYQTLVKSKTEILTQLYTRKKQLLEQQGKGNVACLPKESDLSMDSITEVSAQADENSSQILSSKTSNAPNGTTETDFEDKVPLVDYISPFYRFKSYRFNQQFVERVPLKYRSLTYSNKIEPMKVFCKYETTGGVCNDDHCEASHFRDIKMTDDEIIQDLSRYIEGNDEIEKESYKSGLDIVMKNTDENTDFVDVATRIVEYHNLWKSERMTIPVAKVSI
As to B2, the binding entry in test [6] is “binds”.
